According to paper doi:10.1101/2022.10.19.22280748:
Results are given in words; binding and its absence hold for the method and conditions named. Binding seen in cells or lysates may run through a third protein. Some results given as binding are weak or reduced against the parent protein; the word gives no strength.

By UniProt entry, the sequences of proteins in these tests, tags left out. Where a name states a change or a piece, a line headed by the entry shows the natural chain unless it says otherwise.
UniProt P68371: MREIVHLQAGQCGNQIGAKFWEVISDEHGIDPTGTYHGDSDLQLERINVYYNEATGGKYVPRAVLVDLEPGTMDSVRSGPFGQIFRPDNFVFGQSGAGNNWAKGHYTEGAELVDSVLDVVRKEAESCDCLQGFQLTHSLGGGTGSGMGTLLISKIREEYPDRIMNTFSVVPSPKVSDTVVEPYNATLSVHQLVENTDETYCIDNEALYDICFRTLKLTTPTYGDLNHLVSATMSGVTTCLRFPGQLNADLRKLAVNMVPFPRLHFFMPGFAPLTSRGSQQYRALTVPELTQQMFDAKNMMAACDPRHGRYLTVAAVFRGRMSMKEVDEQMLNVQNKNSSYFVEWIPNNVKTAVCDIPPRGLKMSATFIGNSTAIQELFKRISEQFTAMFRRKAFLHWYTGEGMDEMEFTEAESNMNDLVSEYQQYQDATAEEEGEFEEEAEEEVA
UniProt Q8BYA0: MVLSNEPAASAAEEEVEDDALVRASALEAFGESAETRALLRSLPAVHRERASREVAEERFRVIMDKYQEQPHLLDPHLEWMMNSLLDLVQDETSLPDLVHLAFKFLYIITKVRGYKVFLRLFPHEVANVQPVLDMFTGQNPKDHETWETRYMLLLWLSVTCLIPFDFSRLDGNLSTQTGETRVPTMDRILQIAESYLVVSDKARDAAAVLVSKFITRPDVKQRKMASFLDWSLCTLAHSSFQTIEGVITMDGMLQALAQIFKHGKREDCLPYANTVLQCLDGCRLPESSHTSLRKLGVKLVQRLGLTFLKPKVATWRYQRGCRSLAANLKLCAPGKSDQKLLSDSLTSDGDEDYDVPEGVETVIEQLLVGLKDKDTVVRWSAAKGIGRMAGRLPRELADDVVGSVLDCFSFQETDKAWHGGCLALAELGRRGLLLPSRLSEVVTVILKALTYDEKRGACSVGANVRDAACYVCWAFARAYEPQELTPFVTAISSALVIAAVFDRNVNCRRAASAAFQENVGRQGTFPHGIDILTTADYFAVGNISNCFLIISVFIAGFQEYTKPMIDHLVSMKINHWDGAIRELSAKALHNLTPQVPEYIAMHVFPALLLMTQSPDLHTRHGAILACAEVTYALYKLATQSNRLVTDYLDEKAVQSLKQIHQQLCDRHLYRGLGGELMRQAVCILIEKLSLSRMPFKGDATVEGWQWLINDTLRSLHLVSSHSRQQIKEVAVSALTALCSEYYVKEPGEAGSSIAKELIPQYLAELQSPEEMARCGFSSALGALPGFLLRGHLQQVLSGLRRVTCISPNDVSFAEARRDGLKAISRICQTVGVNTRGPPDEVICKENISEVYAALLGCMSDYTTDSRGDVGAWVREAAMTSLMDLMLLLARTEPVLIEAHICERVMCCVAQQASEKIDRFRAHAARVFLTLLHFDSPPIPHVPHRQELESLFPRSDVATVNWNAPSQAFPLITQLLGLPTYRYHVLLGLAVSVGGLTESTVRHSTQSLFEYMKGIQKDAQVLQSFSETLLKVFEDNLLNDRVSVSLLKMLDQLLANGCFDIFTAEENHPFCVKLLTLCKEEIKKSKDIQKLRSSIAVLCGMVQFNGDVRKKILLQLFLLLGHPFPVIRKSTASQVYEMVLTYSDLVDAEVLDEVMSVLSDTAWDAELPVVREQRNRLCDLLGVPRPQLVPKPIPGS

Tests used:
[1] = target: human TUBB4B p.P259S, C-terminal ALFA tag (human) (UniProt P68371); test: co-IP
[2] = target: human TUBB4B p.P259L, C-terminal ALFA tag (human) (UniProt P68371); test: co-IP

## TBCD (tubulin folding co-factor D), endogenous in IMCD3 cells (from UniProt Q8BYA0 1-1196)
[1]
  binding: binds
[2]
  binding: binds
